# Source: the supplement of paper PMC12819154, “High-throughput peptide-centric local stability assay extends protein–ligand identification to membrane proteins, tissues and bacteria” (Nature Structural & Molecular Biology, 2025)
# Protein sequences, listed by entry. Tags and fused reporters are not part of them. Lines headed by an entry give the natural chain unless they say otherwise; changes in a name come on top.
# UniProt Q673H1: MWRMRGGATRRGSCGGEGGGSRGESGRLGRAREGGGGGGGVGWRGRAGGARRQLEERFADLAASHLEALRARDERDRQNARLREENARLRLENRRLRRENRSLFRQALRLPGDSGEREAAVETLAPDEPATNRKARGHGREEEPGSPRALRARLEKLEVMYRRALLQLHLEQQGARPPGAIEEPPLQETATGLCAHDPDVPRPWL
# UniProt Q68FH0: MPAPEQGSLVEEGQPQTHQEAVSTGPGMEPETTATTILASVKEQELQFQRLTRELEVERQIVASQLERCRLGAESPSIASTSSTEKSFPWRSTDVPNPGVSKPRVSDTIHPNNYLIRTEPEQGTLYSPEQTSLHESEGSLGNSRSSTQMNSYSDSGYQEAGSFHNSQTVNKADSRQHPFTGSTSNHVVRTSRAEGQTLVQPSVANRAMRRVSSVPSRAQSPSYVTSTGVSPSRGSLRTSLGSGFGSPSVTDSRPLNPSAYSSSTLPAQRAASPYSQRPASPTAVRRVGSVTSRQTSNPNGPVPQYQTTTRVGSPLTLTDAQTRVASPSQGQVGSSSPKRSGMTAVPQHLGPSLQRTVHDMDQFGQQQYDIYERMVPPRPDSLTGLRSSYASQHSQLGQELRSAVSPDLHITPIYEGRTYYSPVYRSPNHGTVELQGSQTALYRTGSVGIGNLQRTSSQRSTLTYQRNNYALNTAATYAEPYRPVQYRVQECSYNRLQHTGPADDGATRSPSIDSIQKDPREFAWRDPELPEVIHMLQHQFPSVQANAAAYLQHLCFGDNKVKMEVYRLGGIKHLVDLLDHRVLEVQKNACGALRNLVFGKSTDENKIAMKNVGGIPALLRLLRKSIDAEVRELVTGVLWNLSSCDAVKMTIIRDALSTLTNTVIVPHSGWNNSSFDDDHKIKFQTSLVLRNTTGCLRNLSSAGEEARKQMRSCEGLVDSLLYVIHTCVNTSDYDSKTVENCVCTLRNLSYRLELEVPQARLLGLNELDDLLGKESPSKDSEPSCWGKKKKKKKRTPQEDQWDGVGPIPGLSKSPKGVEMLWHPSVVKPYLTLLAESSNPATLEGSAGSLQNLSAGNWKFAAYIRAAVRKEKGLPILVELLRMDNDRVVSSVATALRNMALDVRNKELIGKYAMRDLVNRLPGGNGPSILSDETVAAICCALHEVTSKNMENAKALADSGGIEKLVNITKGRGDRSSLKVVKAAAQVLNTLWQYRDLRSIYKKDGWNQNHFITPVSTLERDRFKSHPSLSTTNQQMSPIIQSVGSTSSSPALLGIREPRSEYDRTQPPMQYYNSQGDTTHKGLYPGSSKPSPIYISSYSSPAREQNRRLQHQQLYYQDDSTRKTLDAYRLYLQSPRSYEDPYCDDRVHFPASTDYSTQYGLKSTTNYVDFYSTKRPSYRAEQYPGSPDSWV
# UniProt Q64437: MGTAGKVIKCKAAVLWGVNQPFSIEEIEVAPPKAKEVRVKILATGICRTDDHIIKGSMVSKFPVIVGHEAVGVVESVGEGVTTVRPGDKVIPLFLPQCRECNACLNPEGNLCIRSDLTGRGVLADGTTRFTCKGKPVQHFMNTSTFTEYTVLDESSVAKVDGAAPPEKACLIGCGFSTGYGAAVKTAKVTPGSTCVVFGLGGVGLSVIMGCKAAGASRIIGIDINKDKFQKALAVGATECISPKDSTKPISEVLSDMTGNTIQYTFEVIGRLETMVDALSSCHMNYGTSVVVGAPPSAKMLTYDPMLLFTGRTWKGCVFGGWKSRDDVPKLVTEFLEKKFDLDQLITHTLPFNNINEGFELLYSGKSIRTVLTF
# UniProt Q66JX5: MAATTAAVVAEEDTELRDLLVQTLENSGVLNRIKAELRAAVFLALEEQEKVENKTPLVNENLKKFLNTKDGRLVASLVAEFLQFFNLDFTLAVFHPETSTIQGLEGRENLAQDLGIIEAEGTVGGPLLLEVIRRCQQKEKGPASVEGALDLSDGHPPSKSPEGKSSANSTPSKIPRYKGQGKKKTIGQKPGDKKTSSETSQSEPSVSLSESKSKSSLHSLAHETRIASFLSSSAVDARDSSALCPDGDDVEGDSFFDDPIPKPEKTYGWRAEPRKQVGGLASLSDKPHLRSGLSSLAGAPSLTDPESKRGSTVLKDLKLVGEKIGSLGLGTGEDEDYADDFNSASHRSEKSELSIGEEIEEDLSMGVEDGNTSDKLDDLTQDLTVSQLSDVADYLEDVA
# UniProt Q61595: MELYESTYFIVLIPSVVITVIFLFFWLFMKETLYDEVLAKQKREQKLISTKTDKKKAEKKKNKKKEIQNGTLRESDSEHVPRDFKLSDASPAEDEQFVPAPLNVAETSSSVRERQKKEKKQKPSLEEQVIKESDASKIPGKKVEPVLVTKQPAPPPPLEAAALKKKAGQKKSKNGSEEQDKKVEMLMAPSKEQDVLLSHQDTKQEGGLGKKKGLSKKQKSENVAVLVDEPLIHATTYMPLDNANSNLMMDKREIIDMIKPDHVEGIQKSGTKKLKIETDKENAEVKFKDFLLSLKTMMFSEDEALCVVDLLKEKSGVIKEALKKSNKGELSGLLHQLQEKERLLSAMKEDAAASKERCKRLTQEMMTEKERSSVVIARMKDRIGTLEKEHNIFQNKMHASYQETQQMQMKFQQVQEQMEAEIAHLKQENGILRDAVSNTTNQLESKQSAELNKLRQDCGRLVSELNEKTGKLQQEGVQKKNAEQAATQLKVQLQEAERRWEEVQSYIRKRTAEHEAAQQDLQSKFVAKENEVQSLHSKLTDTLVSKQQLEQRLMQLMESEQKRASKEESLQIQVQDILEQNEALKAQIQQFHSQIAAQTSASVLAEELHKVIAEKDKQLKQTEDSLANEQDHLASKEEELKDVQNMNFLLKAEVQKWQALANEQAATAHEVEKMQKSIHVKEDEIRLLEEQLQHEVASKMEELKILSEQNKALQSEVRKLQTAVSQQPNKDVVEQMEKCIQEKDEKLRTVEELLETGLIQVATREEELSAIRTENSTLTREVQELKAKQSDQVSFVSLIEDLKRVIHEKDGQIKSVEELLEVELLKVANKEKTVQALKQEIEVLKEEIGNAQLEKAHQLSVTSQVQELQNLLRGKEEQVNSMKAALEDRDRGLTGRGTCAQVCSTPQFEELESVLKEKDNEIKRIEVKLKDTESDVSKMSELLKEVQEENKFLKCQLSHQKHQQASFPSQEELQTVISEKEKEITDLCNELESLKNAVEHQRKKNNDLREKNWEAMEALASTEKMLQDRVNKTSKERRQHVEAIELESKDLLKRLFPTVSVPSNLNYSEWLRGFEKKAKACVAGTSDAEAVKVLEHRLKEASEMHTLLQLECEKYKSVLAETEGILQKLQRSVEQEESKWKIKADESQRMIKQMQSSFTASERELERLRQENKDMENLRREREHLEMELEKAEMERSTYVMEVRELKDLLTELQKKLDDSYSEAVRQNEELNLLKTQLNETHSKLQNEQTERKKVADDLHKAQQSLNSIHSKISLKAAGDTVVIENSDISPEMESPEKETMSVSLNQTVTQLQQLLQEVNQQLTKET
# UniProt Q61670: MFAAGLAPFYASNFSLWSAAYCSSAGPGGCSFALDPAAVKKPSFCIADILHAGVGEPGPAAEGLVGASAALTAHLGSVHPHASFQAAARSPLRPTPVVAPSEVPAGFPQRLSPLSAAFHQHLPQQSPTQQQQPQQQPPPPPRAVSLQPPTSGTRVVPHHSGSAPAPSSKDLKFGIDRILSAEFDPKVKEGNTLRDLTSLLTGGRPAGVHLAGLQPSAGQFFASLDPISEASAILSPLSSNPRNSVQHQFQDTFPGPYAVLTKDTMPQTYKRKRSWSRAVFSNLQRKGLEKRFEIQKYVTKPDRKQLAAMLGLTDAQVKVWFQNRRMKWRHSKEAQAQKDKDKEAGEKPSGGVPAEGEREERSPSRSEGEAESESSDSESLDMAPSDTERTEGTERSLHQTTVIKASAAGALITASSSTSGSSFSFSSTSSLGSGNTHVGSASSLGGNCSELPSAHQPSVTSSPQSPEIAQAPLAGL
# UniProt Q64151, whole entry: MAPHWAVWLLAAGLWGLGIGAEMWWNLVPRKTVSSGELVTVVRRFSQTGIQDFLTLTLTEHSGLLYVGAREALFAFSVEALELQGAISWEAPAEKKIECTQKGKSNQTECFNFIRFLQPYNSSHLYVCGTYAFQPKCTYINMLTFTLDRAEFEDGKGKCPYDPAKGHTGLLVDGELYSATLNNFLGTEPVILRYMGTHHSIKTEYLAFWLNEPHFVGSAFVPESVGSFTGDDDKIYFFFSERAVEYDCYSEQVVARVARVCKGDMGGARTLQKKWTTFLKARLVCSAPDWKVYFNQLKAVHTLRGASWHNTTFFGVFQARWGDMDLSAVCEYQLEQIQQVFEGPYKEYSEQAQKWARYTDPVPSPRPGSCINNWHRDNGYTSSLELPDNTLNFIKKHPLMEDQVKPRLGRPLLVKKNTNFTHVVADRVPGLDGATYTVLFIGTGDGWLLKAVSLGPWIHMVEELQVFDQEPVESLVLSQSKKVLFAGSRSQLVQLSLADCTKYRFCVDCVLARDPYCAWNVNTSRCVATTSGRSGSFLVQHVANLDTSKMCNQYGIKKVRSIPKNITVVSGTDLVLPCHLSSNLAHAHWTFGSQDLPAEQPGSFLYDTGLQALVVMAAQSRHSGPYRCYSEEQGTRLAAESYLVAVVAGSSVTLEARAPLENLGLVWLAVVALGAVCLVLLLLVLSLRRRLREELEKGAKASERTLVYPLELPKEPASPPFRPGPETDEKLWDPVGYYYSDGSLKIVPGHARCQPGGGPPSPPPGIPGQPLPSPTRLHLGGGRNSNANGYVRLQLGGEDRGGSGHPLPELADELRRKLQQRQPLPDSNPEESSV
# UniProt Q64318: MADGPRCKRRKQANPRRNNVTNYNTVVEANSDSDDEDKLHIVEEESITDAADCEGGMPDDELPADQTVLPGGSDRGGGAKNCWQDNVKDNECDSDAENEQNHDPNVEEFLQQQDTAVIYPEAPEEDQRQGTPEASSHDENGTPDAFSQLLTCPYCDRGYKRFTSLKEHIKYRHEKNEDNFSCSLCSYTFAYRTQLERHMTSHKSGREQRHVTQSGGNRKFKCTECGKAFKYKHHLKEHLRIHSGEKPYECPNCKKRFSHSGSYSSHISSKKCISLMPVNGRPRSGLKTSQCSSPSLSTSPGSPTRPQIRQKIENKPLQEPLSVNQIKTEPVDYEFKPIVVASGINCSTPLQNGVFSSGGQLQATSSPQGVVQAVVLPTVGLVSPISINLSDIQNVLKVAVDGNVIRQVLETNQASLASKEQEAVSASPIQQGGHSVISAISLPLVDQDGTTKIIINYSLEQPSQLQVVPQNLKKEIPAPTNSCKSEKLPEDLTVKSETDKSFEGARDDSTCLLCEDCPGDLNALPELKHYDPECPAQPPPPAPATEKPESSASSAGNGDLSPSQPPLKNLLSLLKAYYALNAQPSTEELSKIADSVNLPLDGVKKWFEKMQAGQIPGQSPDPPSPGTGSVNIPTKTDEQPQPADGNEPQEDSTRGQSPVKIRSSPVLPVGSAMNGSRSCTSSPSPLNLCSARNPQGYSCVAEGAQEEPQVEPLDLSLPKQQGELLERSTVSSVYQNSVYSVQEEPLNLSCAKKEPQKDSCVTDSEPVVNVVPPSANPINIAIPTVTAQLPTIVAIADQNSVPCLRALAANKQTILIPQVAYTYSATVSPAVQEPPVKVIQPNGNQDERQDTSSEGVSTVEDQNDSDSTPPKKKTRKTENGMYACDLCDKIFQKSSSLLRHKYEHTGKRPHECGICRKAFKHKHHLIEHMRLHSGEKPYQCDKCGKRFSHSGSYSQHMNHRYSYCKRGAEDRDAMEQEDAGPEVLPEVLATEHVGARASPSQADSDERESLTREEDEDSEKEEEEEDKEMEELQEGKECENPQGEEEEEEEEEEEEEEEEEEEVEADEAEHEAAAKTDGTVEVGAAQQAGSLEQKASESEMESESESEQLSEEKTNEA
# UniProt Q64520: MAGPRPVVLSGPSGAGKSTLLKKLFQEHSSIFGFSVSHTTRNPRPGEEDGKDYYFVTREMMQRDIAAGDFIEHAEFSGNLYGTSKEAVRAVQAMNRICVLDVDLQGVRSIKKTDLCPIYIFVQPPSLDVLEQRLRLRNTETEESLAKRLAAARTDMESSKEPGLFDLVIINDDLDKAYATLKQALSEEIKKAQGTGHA
# UniProt Q64362: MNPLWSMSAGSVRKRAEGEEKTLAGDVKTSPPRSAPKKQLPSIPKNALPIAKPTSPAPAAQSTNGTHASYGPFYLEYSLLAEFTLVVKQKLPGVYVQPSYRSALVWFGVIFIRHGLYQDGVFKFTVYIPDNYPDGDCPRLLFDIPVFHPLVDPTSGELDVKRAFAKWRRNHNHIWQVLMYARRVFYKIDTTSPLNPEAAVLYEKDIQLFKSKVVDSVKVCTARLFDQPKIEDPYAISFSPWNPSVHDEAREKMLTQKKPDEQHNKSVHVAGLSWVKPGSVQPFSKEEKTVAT
# This is one part of the list. Small differences around the control level are noise.
# Compound: CN[C@@H]1C[C@H]2O[C@@](C)([C@@H]1OC)n1c3ccccc3c3c4c(c5c6ccccc6n2c5c31)C(=O)NC4 [staurosporine]
# Experiment: log2 fold change of tryptic peptide abundance, ligand vs vehicle (limited proteolysis) (log2 ratio); higher = more trypsin-susceptible (destabilized)
# Conditions: ligand concentration: 20 uM; sample: mouse liver crude lysate; replicate design: treated separately
row,Target,log2 fold change
1,"UniProt Q61545 (peptide sequence: TGQPMIHIYLDK, peptide start residue: 392)",0.341
2,"UniProt Q62392 (peptide sequence: KKCCILTEEGLLLIPPK, peptide start residue: 172)",-0.13
3,"UniProt Q673H1 (peptide sequence: EAAVETLAPDEPATNRK, peptide start residue: 118)",0.0634
4,"UniProt Q68FH0 (peptide sequence: SAVSPDLHITPIYEGR, peptide start residue: 402)",-0.248
5,"UniProt Q69ZN7 (peptide sequence: GPSGTVSEAQLAR, peptide start residue: 168)",0.0591
6,"UniProt Q62219 (peptide sequence: VQNHLPASGPPQPPAASPTR, peptide start residue: 170)",-0.175
7,"UniProt Q61686 (peptide sequence: SSFSNSADDIK, peptide start residue: 92)",0.151
8,"UniProt Q64442 (peptide sequence: AVEAFETAK, peptide start residue: 331)",0.149
9,"UniProt Q64437 (peptide sequence: IIGIDINKDKFQK, peptide start residue: 219)",-0.0155
10,"UniProt Q66JX5 (peptide sequence: IASFLSSSAVDAR, peptide start residue: 226)",-0.147
11,"UniProt Q61586 (peptide sequence: FFNPSIPSLGLR, peptide start residue: 78)",0.223
12,"UniProt Q61595 (peptide sequence: LLSAMKEDAAASK, peptide start residue: 343)",0.4
13,"UniProt Q66JW3 (peptide sequence: GQNPNATFGEVSK, peptide start residue: 243)",0.136
14,"UniProt Q63850 (peptide sequence: LAENIDAQLKR, peptide start residue: 440)",0.266
15,"UniProt Q61670 (peptide sequence: SLHQTTVIK, peptide start residue: 396)",0.0136
16,"UniProt Q64151 (peptide sequence: GGSGHPLPELADELRR, peptide start residue: 801)",-0.476
17,"UniProt Q64471 (peptide sequence: KNNIPFQMHTVELRK, peptide start residue: 23)",0.186
18,"UniProt Q62010 (peptide sequence: ATAGISK, peptide start residue: 730)",0.252
19,"UniProt Q61687 (peptide sequence: LTPVSLSNSPIK, peptide start residue: 582)",0.181
20,"UniProt Q64127 (peptide sequence: LLPCLHSFCQR, peptide start residue: 66)",0.187
21,"UniProt Q64318 (peptide sequence: VIQPNGNQDER, peptide start residue: 838)",0.338
22,"UniProt Q61398 (peptide sequence: YDSVSVFNGAVSDDSKR, peptide start residue: 214)",0.343
23,"UniProt Q64520 (peptide sequence: QALSEEIKK, peptide start residue: 183)",0.168
24,"UniProt Q640M1 (peptide sequence: RSELNQAAEPLGNQETK, peptide start residue: 431)",-0.509
25,"UniProt Q61550 (peptide sequence: IWLAAHWDK, peptide start residue: 17)",0.336
26,"UniProt Q62377 (peptide sequence: ASHYDEYYGR, peptide start residue: 371)",0.0265
27,"UniProt Q68FE9 (peptide sequence: SSLHVVDKPVISPTSTRPAASVAR, peptide start residue: 727)",1.04
28,"UniProt Q64362 (peptide sequence: KQLPSIPK, peptide start residue: 38)",0.131

# Exported with bars between the fields: entries from further up.
row | Target | log2 fold change
12 | UniProt Q61595 (peptide sequence: LLSAMKEDAAASK, peptide start residue: 343) | 0.4
13 | UniProt Q66JW3 (peptide sequence: GQNPNATFGEVSK, peptide start residue: 243) | 0.136
14 | UniProt Q63850 (peptide sequence: LAENIDAQLKR, peptide start residue: 440) | 0.266
15 | UniProt Q61670 (peptide sequence: SLHQTTVIK, peptide start residue: 396) | 0.0136
16 | UniProt Q64151 (peptide sequence: GGSGHPLPELADELRR, peptide start residue: 801) | -0.476
17 | UniProt Q64471 (peptide sequence: KNNIPFQMHTVELRK, peptide start residue: 23) | 0.186
18 | UniProt Q62010 (peptide sequence: ATAGISK, peptide start residue: 730) | 0.252
19 | UniProt Q61687 (peptide sequence: LTPVSLSNSPIK, peptide start residue: 582) | 0.181
